Our source for the binding values is article PMC3984265.

Results are given in words; binding and its absence hold for the method and conditions named. Binding seen in cells or lysates may run through a third protein. Some binding calls cover weakened binding; strength is not graded here.

In this experiment the target is Sp1 (human (endogenous in hTERT-airway smooth muscle cells)), P08047. The experiment in a line: co-IP; 500 µg lysate of airway smooth muscle cells (1% IGEPAL buffer, 20 mM Tris-HCl pH 7.5, 120 mM NaCl) incubated with 2 µg anti-Sp1 antibody overnight at 4°C, Protein A-agarose; blot for β-catenin; cells untreated or stimulated with TGF-β (2 ng/ml) for 16 hours. The conditions noted are these: remark: other sources report otherwise.

B1: β-catenin, P35222 1-781 (protein)
chain: MATQADLMELDMAMEPDRKAAVSHWQQQSYLDSGIHSGATTTAPSLSGKGNPEEEDVDTSQVLYEWEQGFSQSFTQEQVADIDGQYAMTRAQRVRAAMFPETLDEGMQIPSTQFDAAHPTNVQRLAEPSQMLKHAVVNLINYQDDAELATRAIPELTKLLNDEDQVVVNKAAVMVHQLSKKEASRHAIMRSPQMVSAIVRTMQNTNDVETARCTAGTLHNLSHHREGLLAIFKSGGIPALVKMLGSPVDSVLFYAITTLHNLLLHQEGAKMAVRLAGGLQKMVALLNKTNVKFLAITTDCLQILAYGNQESKLIILASGGPQALVNIMRTYTYEKLLWTTSRVLKVLSVCSSNKPAIVEAGGMQALGLHLTDPSQRLVQNCLWTLRNLSDAATKQEGMEGLLGTLVQLLGSDDINVVTCAAGILSNLTCNNYKNKMMVCQVGGIEALVRTVLRAGDREDITEPAICALRHLTSRHQEAEMAQNAVRLHYGLPVVVKLLHPPSHWPLIKATVGLIRNLALCPANHAPLREQGAIPRLVQLLVRAHQDTQRRTSMGGTQQQFVEGVRMEEIVEGCTGALHILARDVHNRIVIRGLNTIPLFVQLLYSPIENIQRVAAGVLCELAQDKEAAEAIEAEGATAPLTELLHSRNEGVATYAAAVLFRMSEDKPQDYKKRLSVELTSSLFRTEPMAWNETADLGLDIGAQGEPLGYRQDDPSYRSFHSGGYGQDALGMDPMMEHEMGGHHPGADYPVDGLPDLGHAQDLMDGLPPGDSNQLAWFDTDL
In the case of B1, the binding result is listed as “binds”.
